From paper PMC12332008, “Ribosome biogenesis in plants requires the nuclear envelope and mitochondria localized OPENER complex” (Nature Communications, 2025)
These are yes or no findings as the source states them, for the method shown. In cells and extracts the contact can be indirect. A yes stands for co-enrichment or nearness to the bait. Other partners may have been found. For some assays here: Tags and fused reporters may be left off the sequences shown.

Chains of the proteins cited; added tags and fusions are not shown. Lines headed by an entry give the natural chain unless they say otherwise; changes in a name come on top.
UniProt F4K9I8: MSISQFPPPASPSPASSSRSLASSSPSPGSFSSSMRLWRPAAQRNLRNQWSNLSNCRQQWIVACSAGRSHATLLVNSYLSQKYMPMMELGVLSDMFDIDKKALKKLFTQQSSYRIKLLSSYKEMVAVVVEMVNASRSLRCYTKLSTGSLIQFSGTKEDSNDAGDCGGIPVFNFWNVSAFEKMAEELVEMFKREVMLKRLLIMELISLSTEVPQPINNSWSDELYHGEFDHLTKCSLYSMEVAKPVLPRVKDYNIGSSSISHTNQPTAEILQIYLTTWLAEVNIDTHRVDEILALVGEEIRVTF
UniProt Q9ZPR1: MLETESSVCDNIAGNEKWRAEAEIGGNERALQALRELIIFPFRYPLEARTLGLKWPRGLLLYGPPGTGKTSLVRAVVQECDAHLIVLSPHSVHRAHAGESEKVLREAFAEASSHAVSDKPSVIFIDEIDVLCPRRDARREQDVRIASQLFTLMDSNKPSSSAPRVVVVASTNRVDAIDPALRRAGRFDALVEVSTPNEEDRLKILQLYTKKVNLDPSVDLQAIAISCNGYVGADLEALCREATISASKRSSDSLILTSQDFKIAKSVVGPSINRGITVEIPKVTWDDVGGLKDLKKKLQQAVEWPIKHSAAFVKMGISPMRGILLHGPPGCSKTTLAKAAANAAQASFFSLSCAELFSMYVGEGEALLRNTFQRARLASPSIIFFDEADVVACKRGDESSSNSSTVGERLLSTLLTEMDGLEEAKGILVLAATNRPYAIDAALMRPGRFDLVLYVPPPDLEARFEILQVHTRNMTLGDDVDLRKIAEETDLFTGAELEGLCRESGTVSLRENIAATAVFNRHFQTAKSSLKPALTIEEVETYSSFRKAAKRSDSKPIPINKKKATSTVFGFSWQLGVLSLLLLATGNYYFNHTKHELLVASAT

What was measured:
[1] = biological target: T1, OPNR-YFP (Arabidopsis thaliana) (UniProt Q6NPG7); assay: affinity purification with mass spectrometry; GFP-Trap-MA beads, total proteins of Arabidopsis calli of YFP fusion lines against free YFP; 50 mM Tris pH 7.5, 150 mM NaCl, 1 mM EDTA, 0.5% Triton X-100, 0.5% IGEPAL CA-630, 10% glycerol; 30 min at 4 °C
T1 sequence: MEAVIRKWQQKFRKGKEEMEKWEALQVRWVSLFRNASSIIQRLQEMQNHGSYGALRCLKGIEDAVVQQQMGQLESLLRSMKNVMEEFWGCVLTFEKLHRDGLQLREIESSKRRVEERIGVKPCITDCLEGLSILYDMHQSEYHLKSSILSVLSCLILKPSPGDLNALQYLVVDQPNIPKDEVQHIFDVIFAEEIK

[2] = biological target: T2, YFP-CIP111 (Arabidopsis thaliana) (UniProt Q9LET7); assay: as above
T2 sequence: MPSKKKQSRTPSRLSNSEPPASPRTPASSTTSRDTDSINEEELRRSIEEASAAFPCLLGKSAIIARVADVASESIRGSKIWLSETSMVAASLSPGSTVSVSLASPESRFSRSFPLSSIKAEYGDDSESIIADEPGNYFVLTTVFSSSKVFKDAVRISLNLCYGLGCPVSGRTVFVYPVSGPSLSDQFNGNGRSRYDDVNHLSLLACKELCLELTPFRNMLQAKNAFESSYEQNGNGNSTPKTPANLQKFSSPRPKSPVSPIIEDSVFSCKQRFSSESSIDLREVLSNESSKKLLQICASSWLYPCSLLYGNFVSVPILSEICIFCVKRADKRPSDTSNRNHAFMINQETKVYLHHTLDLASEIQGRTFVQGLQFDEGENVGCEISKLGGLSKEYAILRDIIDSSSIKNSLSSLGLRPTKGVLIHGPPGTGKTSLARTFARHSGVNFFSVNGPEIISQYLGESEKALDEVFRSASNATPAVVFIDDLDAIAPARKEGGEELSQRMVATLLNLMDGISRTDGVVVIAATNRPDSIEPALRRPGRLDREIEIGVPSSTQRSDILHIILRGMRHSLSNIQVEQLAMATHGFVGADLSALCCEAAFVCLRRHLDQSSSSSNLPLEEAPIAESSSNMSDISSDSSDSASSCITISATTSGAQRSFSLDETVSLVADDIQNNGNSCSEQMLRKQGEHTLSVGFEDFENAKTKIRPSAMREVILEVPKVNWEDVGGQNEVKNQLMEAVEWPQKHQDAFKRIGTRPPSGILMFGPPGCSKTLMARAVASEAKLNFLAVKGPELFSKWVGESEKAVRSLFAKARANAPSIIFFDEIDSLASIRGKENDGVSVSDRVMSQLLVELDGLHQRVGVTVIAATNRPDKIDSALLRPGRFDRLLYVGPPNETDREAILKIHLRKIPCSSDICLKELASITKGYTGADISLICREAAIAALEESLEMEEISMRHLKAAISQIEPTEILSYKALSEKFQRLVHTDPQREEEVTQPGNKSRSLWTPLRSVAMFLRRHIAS

[3] = biological target: OAP1-YFP (Arabidopsis thaliana) (UniProt F4K9I8); assay: as above
[4] = biological target: TurboID-YFP-CDC48D (Arabidopsis thaliana) (UniProt Q9ZPR1); assay: proximity labelling; TurboID; calli with 50 µM biotin for 3 h, mitochondria isolated, proteins bound to streptavidin Dynabeads, mass spectrometry; TurboID-YFP-CDC48D against TurboID-YFP
[5] = biological target: TurboID-YFP-CDC48D (Arabidopsis thaliana) (UniProt Q9ZPR1); assay: affinity purification with mass spectrometry; GFP-Trap-MA beads, proteins extracted from the mitochondria enriched pellet of biotin treated callus expressing TurboID-YFP-CDC48D against TurboID-YFP
[6] = biological target: YFP-CDC48D (Arabidopsis thaliana) (UniProt Q9ZPR1); assay: affinity purification with mass spectrometry; GFP-Trap-MA beads, total proteins of Arabidopsis calli of YFP fusion lines against free YFP; 50 mM Tris pH 7.5, 150 mM NaCl, 1 mM EDTA, 0.5% Triton X-100, 0.5% IGEPAL CA-630, 10% glycerol; 30 min at 4 °C

Measured: binding

OPENER ASSOCIATED PROTEIN 1 (OAP1)
binds: [1] | [2]

Cell Division Cycle 48 D (CDC48D) (from UniProt Q9ZPR1) (enzyme)
binds: [3] | [1] | [2]

OPENER ASSOCIATED PROTEIN 2 (OAP2)
binds: [1] | [2]

B1: Calmodulin-interacting protein 111 (CIP111) (enzyme, UniProt Q9LET7 1-1022)
chain: T2 sequence
not listed: [2]
binds: all other assays above

B2: OPENER (OPNR) (protein, UniProt Q6NPG7 1-195)
chain: T1 sequence
not listed: [1]
binds: all other assays above
